# Results: the supplement of paper PMC8728848
# The list shows a part of the results.
# B1: RobpsCRA (Robinia pseudoacacia) (protein)
# chain: IKGGYWYSGSGLAVSDINPSHFTHLFCAFADLDPNTNKLTISSSNAAAFSTFTQTVRAKNPSVKTLLSIGGGGGRALAAVFANMASQASRRKSFIDSSIQLARRNNFHGLDLDWEYPSSDIDKTNFASLIREWRAAVATESSTSGTPALLLSAAVGGSDQITPLKYYPGEAIANNLDWVNVMTYDLYTSDSYPTLTQPPAPLFYPRGIFSADEGITKWIQSGVPESKLALGLPFYGFKWRLSDPNNHGLFAPATQGLGAVKYKDIVNTGGQVEFDSTYVTNYCFKGTDWYGYDDTQSISAKVAYAKQRGLFGYFAWHIEQDSNWALS
# What was measured:
# Experiment in all cases: glycan array binding signal (z-score within array); higher = stronger binding
# Details in all cases: glycan notation: IUPAC condensed, linker removed
# [1] = biological target: Gal(a1-3)Gal(b1-3)GlcNAc
# Procedure, shortened: (§1)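 The binding signal is a Z-score computed within each array and averaged over linkers. Arrays of the same protein sequence at different concentrations or buffers were also averaged together. Data originate from 3228 arrays in the Consortium for Functional Glycomics database, kept only where the protein sequence was available.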
# [2] = biological target: Gal(a1-3)Gal(b1-3)GlcNAc(b1-2)Man
# Procedure, shortened: as §1
# [3] = biological target: Gal(a1-3)Gal(b1-3)GlcNAc(b1-2)Man(a1-3)[Gal(a1-3)Gal(b1-3)GlcNAc(b1-2)Man(a1-6)]Man(b1-4)GlcNAc(b1-4)GlcNAc
# Procedure, shortened: as §1
# [4] = biological target: Gal(a1-3)Gal(b1-3)GlcNAc(b1-3)GalNAc
# Procedure, shortened: as §1
# [5] = biological target: Gal(a1-3)Gal(b1-3)GlcNAc(b1-6)GalNAc
# Procedure, shortened: as §1
# [6] = biological target: Gal(a1-3)Gal(b1-3)[Fuc(a1-4)]GlcNAc(b1-2)Man(a1-3)[Gal(a1-3)Gal(b1-3)[Fuc(a1-4)]GlcNAc(b1-2)Man(a1-6)]Man(b1-4)GlcNAc(b1-4)GlcNAc
# Procedure, shortened: as §1
# [7] = biological target: Gal(a1-3)Gal(b1-4)Glc
# Procedure, shortened: as §1
# [8] = biological target: Gal(a1-3)Gal(b1-4)GlcNAc
# Procedure, shortened: as §1
# [9] = biological target: Gal(a1-3)Gal(b1-4)GlcNAc(b1-2)Man
# Procedure, shortened: as §1
# [10] = biological target: Gal(a1-3)Gal(b1-4)GlcNAc(b1-2)Man(a1-3)[Gal(a1-3)Gal(b1-4)GlcNAc(b1-2)Man(a1-6)]Man(b1-4)GlcNAc(b1-4)GlcNAc
# Procedure, shortened: as §1
# [11] = biological target: Gal(a1-3)Gal(b1-4)GlcNAc(b1-3)GalNAc
# Procedure, shortened: as §1
# [12] = biological target: Gal(a1-3)Gal(b1-4)GlcNAc(b1-6)GalNAc
# Procedure, shortened: as §1
# [13] = biological target: Gal(a1-3)Gal(b1-4)[Fuc(a1-3)]GlcNAc
# Procedure, shortened: as §1
# [14] = biological target: Gal(a1-3)Gal(b1-4)[Fuc(a1-3)]GlcNAc(b1-2)Man(a1-3)[Gal(a1-3)Gal(b1-4)[Fuc(a1-3)]GlcNAc(b1-2)Man(a1-6)]Man(b1-4)GlcNAc(b1-4)GlcNAc
# Procedure, shortened: as §1
# [15] = biological target: Gal(a1-3)GalNAc
# Procedure, shortened: as §1
# [16] = biological target: Gal(a1-3)[Gal(a1-4)]Gal(b1-4)GlcNAc
# Procedure, shortened: as §1
# [17] = biological target: Gal(a1-4)Gal(b1-3)GlcNAc(b1-2)Man(a1-3)[Gal(a1-4)Gal(b1-3)GlcNAc(b1-2)Man(a1-6)]Man(b1-4)GlcNAc(b1-4)GlcNAc
# Procedure, shortened: as §1
# [18] = biological target: Gal(a1-4)Gal(b1-4)Glc
# Procedure, shortened: as §1
# [19] = biological target: Gal(a1-4)Gal(b1-4)GlcNAc
# Procedure, shortened: as §1
# [20] = biological target: Gal(a1-4)Gal(b1-4)GlcNAc(b1-2)Man(a1-3)[Gal(a1-4)Gal(b1-4)GlcNAc(b1-2)Man(a1-6)]Man(b1-4)GlcNAc(b1-4)GlcNAc
# Procedure, shortened: as §1
# [21] = biological target: Gal(a1-4)Gal(b1-4)GlcNAc(b1-3)Gal(b1-4)Glc
# Procedure, shortened: as §1
# [22] = biological target: Gal(a1-4)GlcNAc
# Procedure, shortened: as §1
# [23] = biological target: Gal(a1-6)Glc
# Procedure, shortened: as §1
# [24] = biological target: Gal(b1-2)Gal
# Procedure, shortened: as §1
# [25] = biological target: Gal(b1-3)Gal
# Procedure, shortened: as §1
# [26] = biological target: Gal(b1-3)Gal(b1-4)GlcNAc
# Procedure, shortened: as §1
# [27] = biological target: Gal(b1-3)GalNAc
# Procedure, shortened: as §1
# [28] = biological target: Gal(b1-3)GalNAc(a1-3)[Fuc(a1-2)]Gal(b1-4)Glc
# Procedure, shortened: as §1
# [29] = biological target: Gal(b1-3)GalNAc(a1-3)[Fuc(a1-2)]Gal(b1-4)GlcNAc
# Procedure, shortened: as §1
# [30] = biological target: Gal(b1-3)GalNAc(b1-3)Gal
# Procedure, shortened: as §1
# [31] = biological target: Gal(b1-3)GalNAc(b1-3)Gal(a1-4)Gal(b1-4)Glc
# Procedure, shortened: as §1
# [32] = biological target: Gal(b1-3)GalNAc(b1-4)Gal(b1-4)Glc
# Procedure, shortened: as §1
# [33] = biological target: Gal(b1-3)GalNAc(b1-4)[Neu5Ac(a2-3)]Gal(b1-4)Glc
# Procedure, shortened: as §1
# [34] = biological target: Gal(b1-3)GlcNAc
# Procedure, shortened: as §1
# [35] = biological target: Gal(b1-3)GlcNAc(a1-3)Gal(b1-4)GlcNAc
# Procedure, shortened: as §1
# [36] = biological target: Gal(b1-3)GlcNAc(a1-6)Gal(b1-4)GlcNAc
# Procedure, shortened: as §1
# [37] = biological target: Gal(b1-3)GlcNAc(b1-2)Man
# Procedure, shortened: as §1
# [38] = biological target: Gal(b1-3)GlcNAc(b1-2)Man(a1-3)[Gal(b1-3)GlcNAc(b1-2)Man(a1-6)]Man(b1-4)GlcNAc(b1-4)GlcNAc
# Procedure, shortened: as §1
binder,measurement,setting,value
B1,glycan array binding signal (z-score),[1],0.181
same,glycan array binding signal (z-score),[2],0.797
same,glycan array binding signal (z-score),[3],-0.7
same,glycan array binding signal (z-score),[4],-0.793
same,glycan array binding signal (z-score),[5],-0.356
same,glycan array binding signal (z-score),[6],0.581
same,glycan array binding signal (z-score),[7],-0.053
same,glycan array binding signal (z-score),[8],0.596
same,glycan array binding signal (z-score),[9],-0.591
same,glycan array binding signal (z-score),[10],-0.144
same,glycan array binding signal (z-score),[11],-0.684
same,glycan array binding signal (z-score),[12],-0.768
same,glycan array binding signal (z-score),[13],-0.553
same,glycan array binding signal (z-score),[14],-0.037
same,glycan array binding signal (z-score),[15],0.48
same,glycan array binding signal (z-score),[16],1.85
same,glycan array binding signal (z-score),[17],0.762
same,glycan array binding signal (z-score),[18],-0.252
same,glycan array binding signal (z-score),[19],0.31
same,glycan array binding signal (z-score),[20],0.418
same,glycan array binding signal (z-score),[21],-0.34
same,glycan array binding signal (z-score),[22],-0.505
same,glycan array binding signal (z-score),[23],-0.118
same,glycan array binding signal (z-score),[24],-0.839
same,glycan array binding signal (z-score),[25],-0.71
same,glycan array binding signal (z-score),[26],-0.384
same,glycan array binding signal (z-score),[27],-0.508
same,glycan array binding signal (z-score),[28],-0.539
same,glycan array binding signal (z-score),[29],0.085
same,glycan array binding signal (z-score),[30],-0.091
same,glycan array binding signal (z-score),[31],0.121
same,glycan array binding signal (z-score),[32],-0.501
same,glycan array binding signal (z-score),[33],-0.212
same,glycan array binding signal (z-score),[34],-0.11
same,glycan array binding signal (z-score),[35],-0.255
same,glycan array binding signal (z-score),[36],-0.067
same,glycan array binding signal (z-score),[37],-0.002
same,glycan array binding signal (z-score),[38],0.411

# 2 records picked at random from the list so far:
binder,measurement,setting,value
B1,glycan array binding signal (z-score),[14],-0.037
same,glycan array binding signal (z-score),[34],-0.11
